{"source": "PubChem BioAssay AID1259254 (NCATS, 2017)", "screen": "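Gene knock-downs that lead to re-replication, shown by excess G2 DNA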 (primary screen)", "system": "human HCT116 colorectal cancer cells", "reagents": "single siRNA against human genes", "timing": "3 days", "measurement": "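Nuclei stained with Hoechst and imaged; cell-cycle phase assigned by DNA content; G2 share scaled per plate, non-targeting siRNA 0%, GMNN siRNA 100%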", "reading the numbers": "G2 robust z-score and G2 cells, % of GMNN control: higher = more G2 cells, more excess DNA replication", "active means": "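Active siRNAs have a G2 robust z of 5 or more median absolute deviations over the median, which in these data means about 38% or higher of GMNN control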", "note": "This is one part, drawn at random, of about 59,000 reagents tested. About 1,550 of all reagents (2.6%) were called active. 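G2 share is only a proxy for re-replication; each gene was hit by three separate siRNAs, and active genes were retested.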 Further read-outs or replicates are left out here. Not stated in the record: the amount of reagent."}
{"Gene":"POMT2","PubChem SID":"SID160739382","G2 robust z-score":0.851,"G2 cells, % of GMNN control":8.95,"activity call":"inactive"}
{"Gene":"POMT2","PubChem SID":"SID160739383","G2 robust z-score":-0.331,"G2 cells, % of GMNN control":0.635,"activity call":"inactive"}
{"Gene":"POMT2","PubChem SID":"SID160739384","G2 robust z-score":-1.18,"G2 cells, % of GMNN control":-5.33,"activity call":"inactive"}
{"Gene":"TMEM70","PubChem SID":"SID160742626","G2 robust z-score":0.526,"G2 cells, % of GMNN control":6.67,"activity call":"inactive"}
{"Gene":"TMEM70","PubChem SID":"SID160742627","G2 robust z-score":3.42,"G2 cells, % of GMNN control":27,"activity call":"inactive"}
{"Gene":"TMEM70","PubChem SID":"SID160742629","G2 robust z-score":4.77,"G2 cells, % of GMNN control":36.5,"activity call":"inactive"}
{"Gene":"MIS18BP1","PubChem SID":"SID160743526","G2 robust z-score":0.699,"G2 cells, % of GMNN control":7.89,"activity call":"inactive"}
{"Gene":"MIS18BP1","PubChem SID":"SID160743527","G2 robust z-score":-0.0713,"G2 cells, % of GMNN control":2.47,"activity call":"inactive"}
{"Gene":"MIS18BP1","PubChem SID":"SID160743528","G2 robust z-score":-0.262,"G2 cells, % of GMNN control":1.12,"activity call":"inactive"}
{"Gene":"CNOT7","PubChem SID":"SID160739223","G2 robust z-score":-0.423,"G2 cells, % of GMNN control":-0.0101,"activity call":"inactive"}
{"Gene":"CNOT7","PubChem SID":"SID160739224","G2 robust z-score":-1.51,"G2 cells, % of GMNN control":-7.67,"activity call":"inactive"}
{"Gene":"CNOT7","PubChem SID":"SID160739225","G2 robust z-score":-0.88,"G2 cells, % of GMNN control":-3.22,"activity call":"inactive"}
{"Gene":"CARNMT1","PubChem SID":"SID160757577","G2 robust z-score":-0.0947,"G2 cells, % of GMNN control":2.3,"activity call":"inactive"}
{"Gene":"CARNMT1","PubChem SID":"SID160757578","G2 robust z-score":1.09,"G2 cells, % of GMNN control":10.6,"activity call":"inactive"}
{"Gene":"CARNMT1","PubChem SID":"SID160757579","G2 robust z-score":1.71,"G2 cells, % of GMNN control":15,"activity call":"inactive"}
{"Gene":"TEDC2-AS1","PubChem SID":"SID160734593","G2 robust z-score":-0.299,"G2 cells, % of GMNN control":0.866,"activity call":"inactive"}
{"Gene":"TEDC2-AS1","PubChem SID":"SID160773020","G2 robust z-score":-0.0678,"G2 cells, % of GMNN control":2.49,"activity call":"inactive"}
{"Gene":"TEDC2-AS1","PubChem SID":"SID160773021","G2 robust z-score":-0.399,"G2 cells, % of GMNN control":0.157,"activity call":"inactive"}

2 neighbouring records from above, for reference:
{"Gene":"CARNMT1","PubChem SID":"SID160757577","G2 robust z-score":-0.0947,"G2 cells, % of GMNN control":2.3,"activity call":"inactive"}
{"Gene":"CARNMT1","PubChem SID":"SID160757578","G2 robust z-score":1.09,"G2 cells, % of GMNN control":10.6,"activity call":"inactive"}
